Measurements: article PMC9835385
These are yes or no findings as the source states them, for the method shown. In cells and extracts the contact can be indirect. Some results given as binding are weak or reduced against the parent protein; the word gives no strength.

By UniProt entry, the sequences of proteins in these tests, tags left out. Residues count along the entry.
UniProt P26599: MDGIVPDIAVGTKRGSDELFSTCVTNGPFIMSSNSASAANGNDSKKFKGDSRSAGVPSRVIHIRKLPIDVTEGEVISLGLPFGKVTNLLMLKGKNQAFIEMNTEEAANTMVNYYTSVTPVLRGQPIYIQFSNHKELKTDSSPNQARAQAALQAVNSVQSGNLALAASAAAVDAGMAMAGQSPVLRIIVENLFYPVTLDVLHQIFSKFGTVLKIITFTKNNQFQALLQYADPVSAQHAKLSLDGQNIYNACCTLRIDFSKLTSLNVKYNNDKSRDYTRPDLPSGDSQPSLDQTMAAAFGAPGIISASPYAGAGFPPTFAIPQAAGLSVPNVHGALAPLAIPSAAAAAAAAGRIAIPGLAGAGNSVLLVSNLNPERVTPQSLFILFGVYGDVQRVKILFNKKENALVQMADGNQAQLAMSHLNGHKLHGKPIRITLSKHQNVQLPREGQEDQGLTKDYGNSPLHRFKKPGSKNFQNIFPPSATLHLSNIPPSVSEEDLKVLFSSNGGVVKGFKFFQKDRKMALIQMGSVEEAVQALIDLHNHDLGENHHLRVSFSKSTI
UniProt P46531, residues 19-2555: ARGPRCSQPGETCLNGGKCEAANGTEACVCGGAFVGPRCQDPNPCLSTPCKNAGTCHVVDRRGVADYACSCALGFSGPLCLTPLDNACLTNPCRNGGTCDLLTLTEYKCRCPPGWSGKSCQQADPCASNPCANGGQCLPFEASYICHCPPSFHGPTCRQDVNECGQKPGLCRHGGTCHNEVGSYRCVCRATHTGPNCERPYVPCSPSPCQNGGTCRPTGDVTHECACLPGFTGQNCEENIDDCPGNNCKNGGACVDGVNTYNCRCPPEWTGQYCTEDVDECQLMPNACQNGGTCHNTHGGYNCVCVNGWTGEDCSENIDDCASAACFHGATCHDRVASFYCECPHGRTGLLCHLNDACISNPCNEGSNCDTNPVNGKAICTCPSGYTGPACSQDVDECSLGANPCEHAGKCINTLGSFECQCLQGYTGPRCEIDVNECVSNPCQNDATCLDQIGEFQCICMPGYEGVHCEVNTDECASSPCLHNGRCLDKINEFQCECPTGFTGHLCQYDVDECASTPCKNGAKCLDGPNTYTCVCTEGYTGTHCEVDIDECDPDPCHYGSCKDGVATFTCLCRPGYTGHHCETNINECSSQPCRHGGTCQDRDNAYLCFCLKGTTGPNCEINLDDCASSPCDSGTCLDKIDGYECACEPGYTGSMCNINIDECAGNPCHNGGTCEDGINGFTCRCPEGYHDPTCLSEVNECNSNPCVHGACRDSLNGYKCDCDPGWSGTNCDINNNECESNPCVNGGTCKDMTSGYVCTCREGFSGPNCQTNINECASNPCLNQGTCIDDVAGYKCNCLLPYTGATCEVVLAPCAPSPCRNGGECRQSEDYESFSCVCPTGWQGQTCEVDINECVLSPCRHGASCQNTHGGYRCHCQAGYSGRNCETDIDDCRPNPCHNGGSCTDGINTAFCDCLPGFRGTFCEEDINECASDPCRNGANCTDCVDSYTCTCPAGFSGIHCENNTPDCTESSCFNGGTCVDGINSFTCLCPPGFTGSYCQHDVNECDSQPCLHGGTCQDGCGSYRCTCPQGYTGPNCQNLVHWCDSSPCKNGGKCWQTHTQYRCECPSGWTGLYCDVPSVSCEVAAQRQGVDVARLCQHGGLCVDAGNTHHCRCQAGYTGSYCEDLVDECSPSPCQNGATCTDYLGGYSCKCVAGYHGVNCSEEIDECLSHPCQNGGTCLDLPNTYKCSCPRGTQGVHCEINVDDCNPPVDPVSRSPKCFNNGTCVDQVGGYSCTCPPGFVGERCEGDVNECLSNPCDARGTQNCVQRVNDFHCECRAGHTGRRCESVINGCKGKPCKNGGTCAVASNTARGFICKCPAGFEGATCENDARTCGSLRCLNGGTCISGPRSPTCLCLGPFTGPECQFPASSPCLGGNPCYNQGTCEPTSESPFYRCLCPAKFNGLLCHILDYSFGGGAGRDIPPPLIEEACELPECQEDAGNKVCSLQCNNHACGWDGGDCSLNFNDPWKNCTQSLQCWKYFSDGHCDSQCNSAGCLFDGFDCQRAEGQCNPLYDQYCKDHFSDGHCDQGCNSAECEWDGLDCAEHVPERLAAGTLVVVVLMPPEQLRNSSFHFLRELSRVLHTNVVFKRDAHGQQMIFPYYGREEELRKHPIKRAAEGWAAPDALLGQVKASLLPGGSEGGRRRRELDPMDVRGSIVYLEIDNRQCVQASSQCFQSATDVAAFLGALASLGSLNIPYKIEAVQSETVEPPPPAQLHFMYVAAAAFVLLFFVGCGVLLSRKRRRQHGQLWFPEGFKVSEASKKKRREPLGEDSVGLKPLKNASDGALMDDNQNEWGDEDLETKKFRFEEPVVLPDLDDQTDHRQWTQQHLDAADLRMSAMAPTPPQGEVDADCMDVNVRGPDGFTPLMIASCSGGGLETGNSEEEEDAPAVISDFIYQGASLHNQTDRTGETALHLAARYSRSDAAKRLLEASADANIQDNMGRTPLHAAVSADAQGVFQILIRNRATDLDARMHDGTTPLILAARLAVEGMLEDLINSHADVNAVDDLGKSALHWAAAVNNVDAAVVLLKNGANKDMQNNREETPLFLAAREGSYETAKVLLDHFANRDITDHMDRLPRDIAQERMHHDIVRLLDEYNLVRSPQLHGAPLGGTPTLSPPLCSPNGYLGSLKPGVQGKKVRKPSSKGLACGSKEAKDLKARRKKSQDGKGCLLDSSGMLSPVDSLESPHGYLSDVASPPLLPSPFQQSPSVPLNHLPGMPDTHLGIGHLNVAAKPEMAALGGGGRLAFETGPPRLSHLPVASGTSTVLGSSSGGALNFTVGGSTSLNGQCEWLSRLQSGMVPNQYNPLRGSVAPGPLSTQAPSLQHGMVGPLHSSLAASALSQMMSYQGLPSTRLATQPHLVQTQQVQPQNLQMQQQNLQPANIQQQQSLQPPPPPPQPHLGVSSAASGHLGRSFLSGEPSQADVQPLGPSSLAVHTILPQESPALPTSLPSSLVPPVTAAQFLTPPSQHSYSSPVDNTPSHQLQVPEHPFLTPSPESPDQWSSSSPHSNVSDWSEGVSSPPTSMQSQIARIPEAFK

Target: polypyrimidine tract-binding protein 1 (human (endogenous in A549)) (UniProt P26599)
Experiment: co-IP; A549 cell lysate incubated overnight at 4 °C with magnetic beads carrying anti-PTBP1 antibody or anti-IgG (Magna RIP kit), then Western blot; cells irradiated before lysis; called immunoprecipitation or RIP in text and legend

For “Notch1 (from UniProt P46531 19-2555) (receptor)”, the binding was “binds”.
